No constants are given. Whether binding was seen depends on the method and setting. Binding seen in cells or lysates may run through a third protein. Some binding calls cover weakened binding; strength is not graded here. Where a sequence is shown, tags or fusion partners need not be part of it.

Amino acid sequences for entries named in this document (tags omitted).
UniProt Q96CV9: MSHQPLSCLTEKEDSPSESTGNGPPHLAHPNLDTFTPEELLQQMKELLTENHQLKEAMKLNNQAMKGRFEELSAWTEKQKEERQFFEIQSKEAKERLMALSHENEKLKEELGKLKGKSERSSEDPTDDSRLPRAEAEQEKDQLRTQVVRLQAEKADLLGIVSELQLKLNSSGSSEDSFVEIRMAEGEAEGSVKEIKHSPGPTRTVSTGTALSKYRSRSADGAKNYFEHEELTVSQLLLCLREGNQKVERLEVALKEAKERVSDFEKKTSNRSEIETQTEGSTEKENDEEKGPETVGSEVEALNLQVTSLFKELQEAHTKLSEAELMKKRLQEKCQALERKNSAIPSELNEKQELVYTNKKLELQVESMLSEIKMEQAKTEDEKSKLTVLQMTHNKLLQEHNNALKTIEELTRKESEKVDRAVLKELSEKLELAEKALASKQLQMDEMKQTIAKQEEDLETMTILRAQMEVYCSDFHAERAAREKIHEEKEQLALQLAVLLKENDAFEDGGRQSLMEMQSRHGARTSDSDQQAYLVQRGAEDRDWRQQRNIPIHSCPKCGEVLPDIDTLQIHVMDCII

Binding data for one molecule are collected here from paper doi:10.1101/2022.06.02.494603.

The target in the test is optineurin, C-terminal myc-FLAG-tagged (UniProt Q96CV9). The test is described as follows: co-IP.

B1: TANK-binding kinase 1, wild type, untagged (protein, UniProt Q9UHD2 1-729)
chain: MQSTSNHLWLLSDILGQGATANVFRGRHKKTGDLFAIKVFNNISFLRPVDVQMREFEVLKKLNHKNIVKLFAIEEETTTRHKVLIMEFCPCGSLYTVLEEPSNAYGLPESEFLIVLRDVVGGMNHLRENGIVHRDIKPGNIMRVIGEDGQSVYKLTDFGAARELEDDEQFVSLYGTEEYLHPDMYERAVLRKDHQKKYGATVDLWSIGVTFYHAATGSLPFRPFEGPRRNKEVMYKIITGKPSGAISGVQKAENGPIDWSGDMPVSCSLSRGLQVLLTPVLANILEADQEKCWGFDQFFAETSDILHRMVIHVFSLQQMTAHKIYIHSYNTATIFHELVYKQTKIISSNQELIYEGRRLVLEPGRLAQHFPKTTEENPIFVVSREPLNTIGLIYEKISLPKVHPRYDLDGDASMAKAITGVVCYACRIASTLLLYQELMRKGIRWLIELIKDDYNETVHKKTEVVITLDFCIRNIEKTVKVYEKLMKINLEAAELGEISDIHTKLLRLSSSQGTIETSLQDIDSRLSPGGSLADAWAHQEGTHPKDRNVEKLQVLLNCMTEIYYQFKKDKAERRLAYNEEQIHKFDKQKLYYHATKAMTHFTDECVKKYEAFLNKSEEWIRKMLHLRKQLLSLTNQCFDIEEEVSKYQEYTNELQETLPQKMFTASSGIKHTMTPIYPSSNTLVEMTLGMKKLKEEMEGVVKELAENNHILERFGSLTMDGGLRNVDCL
Consider B1, for which the binding entry is “binds”.
